Read-outs that look alike come from different tables or passages of the source.
With `O=[N+]([O-])O` [nitrate] the “water injection (injectivity) pressure” value (nitrate reduced to 23 mg/L) was 930 psig, the injectivity pressure (nitrate reduced to 23 mg/l) was 930 psi and the “injectivity pressure” value (nitrate treatment of 45 mg/L) was 960 psi. For the same compound, the “water injection (injectivity) pressure” value (nitrate treatment of 45 mg/L) was 960 psig.

Reference: patent publication US11732560B1, “Nitrate treatment for injectivity improvement” (SAUDI ARABIAN OIL COMPANY, priority 2022, dated 2023)
